From publication PMC11464496
No constants are given. Whether binding was seen depends on the method and setting. In cells and extracts the contact can be indirect. Some binding calls cover weakened binding; strength is not graded here. Where a sequence is shown, tags or fusion partners need not be part of it.

Target: T1, Flag-tagged ULK1 (human) (UniProt O75385)
T1 sequence: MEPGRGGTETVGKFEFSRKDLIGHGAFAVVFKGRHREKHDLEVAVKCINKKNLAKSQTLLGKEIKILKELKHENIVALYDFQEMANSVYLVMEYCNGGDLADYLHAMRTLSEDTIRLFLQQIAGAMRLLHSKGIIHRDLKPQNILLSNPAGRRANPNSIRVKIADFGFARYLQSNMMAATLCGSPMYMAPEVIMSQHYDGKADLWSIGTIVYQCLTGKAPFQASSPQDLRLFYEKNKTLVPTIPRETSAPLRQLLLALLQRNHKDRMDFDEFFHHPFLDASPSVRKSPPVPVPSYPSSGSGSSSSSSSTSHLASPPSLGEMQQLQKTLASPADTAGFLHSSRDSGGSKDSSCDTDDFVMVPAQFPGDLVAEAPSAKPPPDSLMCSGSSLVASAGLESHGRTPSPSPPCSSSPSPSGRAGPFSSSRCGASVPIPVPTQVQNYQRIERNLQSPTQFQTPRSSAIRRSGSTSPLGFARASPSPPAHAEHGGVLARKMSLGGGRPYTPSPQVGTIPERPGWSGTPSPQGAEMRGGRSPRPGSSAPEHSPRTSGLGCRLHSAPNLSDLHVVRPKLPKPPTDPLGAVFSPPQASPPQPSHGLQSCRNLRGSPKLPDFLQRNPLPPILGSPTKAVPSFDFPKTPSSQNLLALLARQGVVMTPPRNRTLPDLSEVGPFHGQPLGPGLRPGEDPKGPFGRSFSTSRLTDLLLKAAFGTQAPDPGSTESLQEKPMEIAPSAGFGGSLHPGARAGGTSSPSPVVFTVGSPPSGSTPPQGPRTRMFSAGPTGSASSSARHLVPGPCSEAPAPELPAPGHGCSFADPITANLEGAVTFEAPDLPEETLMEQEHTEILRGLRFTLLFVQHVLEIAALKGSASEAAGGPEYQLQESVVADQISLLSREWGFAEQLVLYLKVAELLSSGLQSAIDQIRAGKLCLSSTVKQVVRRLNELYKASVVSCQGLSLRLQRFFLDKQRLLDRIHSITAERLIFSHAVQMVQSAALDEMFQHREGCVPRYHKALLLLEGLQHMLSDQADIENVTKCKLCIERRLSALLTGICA
Experiment: co-IP; HEK293T cells co-transfected with Flag- and Myc-tagged plasmids; lysis in IP buffer (50 mM Tris-HCl, 150 mM NaCl, 1.0% NP-40); agarose-conjugated anti-Flag antibody overnight at 4 °C; immunoblot

- binding: binds
B1: Myc-tagged FBXO16 (protein, UniProt Q8IX29 1-292)
chain: MMAFAPPKNTDGPKMQTKMSTWTPLNHQLLNDRVFEERRALLGKWFDKWTDSQRRRILTGLLERCSLSQQKFCCRKLQEKIPAEALDFTTKLPRVLSLYIFSFLDPRSLCRCAQVCWHWKNLAELDQLWMLKCLRFNWYINFSPTPFEQGIWKKHYIQMVKELHITKPKTPPKDGFVIADVQLVTSNSPEEKQSPLSAFRSSSSLRKKNNSGEKALPPWRSSDKHPTDIIRFNYLDNRDPMETVQQGRRKRNQMTPDFSRQSHDKKNKLQDRTRLRKAQSMMSRRNPFPLCP
